Source: patent US20260166068A1, “COMPOSITION FOR PROMOTING DEVELOPMENT OF BRAIN FUNCTIONS IN CHILDREN” (Meiji Co., Ltd., priority 2022, published 2026)

Experiment: LC-MS/MS determination of NAD-related substances in 1-month breast milk
Set-up: species or system human
Conditions: for Concentration in 1-month breast milk, first quartile / Concentration in 1-month breast milk, maximum value / Concentration in 1-month breast milk, minimum value / Concentration in 1-month breast milk, second quartile (median) / Concentration in 1-month breast milk, third quartile: 150 samples, FIG. 3

SMILES	Concentration in 1-month breast milk, first quartile [µg/mL]	Concentration in 1-month breast milk, maximum value [µg/mL]	Concentration in 1-month breast milk, minimum value [µg/mL]	Concentration in 1-month breast milk, second quartile (median) [µg/mL]	Concentration in 1-month breast milk, third quartile [µg/mL]	Mean NMN concentration in 1-month breast milk [µg/mL]
O=C(O)c1cccnc1 [NA, nicotinic acid]	0.000	0.002	0.000	0.000	0.002	–
NC(=O)c1ccc[n+]([C@@H]2O[C@H](COP(=O)([O-])O)[C@@H](O)[C@H]2O)c1 [NMN, nicotinamide mononucleotide]	2.352	8.043	0.058	3.075	3.758	3.089
NC(=O)c1ccc[n+]([C@@H]2O[C@H](CO)[C@@H](O)[C@H]2O)c1 [NR, nicotinamide riboside]	0.050	1.532	0.006	0.119	0.422	–
